Source: PubChem BioAssay AID1259405 (NCATS, 2018)

- Screen: 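Mouse-designed siRNAs used to find CHO productivity engineering targets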 (primary screen)
- Cell system: Chinese hamster CHO-K1 ovary cells with stable secreted eGFP expression
- Knock-down reagent: single siRNA against mouse genes, 0.8 pmol siRNA per well (2 µl of 400 nM stock)
- Time to read-out: 3 days
- Detection: 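Percent of the per-plate non-targeting control median for intracellular GFP per well by laser scanning cytometry and for cell viability by ATP luminescence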
- Direction: GFP, % of control: higher = more GFP per well, higher productivity; viability (ATP), % of control: higher = more viable cells (more ATP)
- Active means: 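Called active when intracellular GFP, relative to negative control, is at or above 120%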
The whole screen tested about 50,000 reagents; this is a part drawn at random. Over the whole deposit, about 4,000 (8%) got an active call. 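Mouse siRNA library applied to hamster cells; one well for each siRNA.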 The numbers tell different reagents against one gene apart. Reagent sequences are not shown.

target gene,siRNA no.,"GFP, % of control","viability (ATP), % of control",activity call
"Psmd2 (proteasome (prosome, macropain) 26S subunit, non-ATPase, 2)",1,21.6,11.8,inactive
"Psmd2 (proteasome (prosome, macropain) 26S subunit, non-ATPase, 2)",2,29.5,22.2,inactive
Lce1a1 (late cornified envelope 1A1),1,61.3,62,inactive
Lce1a1 (late cornified envelope 1A1),2,126,114,active
Lce1a1 (late cornified envelope 1A1),3,94.7,99.6,inactive
"Deaf1 (DEAF1, transcription factor)",1,102,83.3,inactive
"Deaf1 (DEAF1, transcription factor)",2,113,87,inactive
Aasdhppt,1,95.6,64.3,inactive
Aasdhppt,2,81.9,147,inactive
Aasdhppt,3,124,134,active
"Chtf18 (CTF18, chromosome transmission fidelity factor 18)",1,89,67.4,inactive
"Chtf18 (CTF18, chromosome transmission fidelity factor 18)",2,76,60,inactive
"Chtf18 (CTF18, chromosome transmission fidelity factor 18)",3,45.8,53.3,inactive
Zfp597 (zinc finger protein 597),1,61.5,75.5,inactive
Zfp597 (zinc finger protein 597),2,86.2,85.3,inactive
Zfp597 (zinc finger protein 597),3,75.7,83.6,inactive
Ltv1 (LTV1 ribosome biogenesis factor),1,80,59.7,inactive
Ltv1 (LTV1 ribosome biogenesis factor),2,90.4,79.6,inactive
Ltv1 (LTV1 ribosome biogenesis factor),3,76.9,69.7,inactive
"Haus6 (HAUS augmin-like complex, subunit 6)",1,29,49.3,inactive
"Haus6 (HAUS augmin-like complex, subunit 6)",2,78.1,77.9,inactive
"Haus6 (HAUS augmin-like complex, subunit 6)",3,101,118,inactive
Or8h8 (olfactory receptor family 8 subfamily H member 8),1,85.7,78.4,inactive
Or8h8 (olfactory receptor family 8 subfamily H member 8),2,52.2,77.1,inactive
Or8h8 (olfactory receptor family 8 subfamily H member 8),3,121,45.9,active
Lpgat1 (lysophosphatidylglycerol acyltransferase 1),1,134,81.1,active
Lpgat1 (lysophosphatidylglycerol acyltransferase 1),2,103,85.5,inactive
Lpgat1 (lysophosphatidylglycerol acyltransferase 1),3,40.7,64.6,inactive
Strada (STE20-related kinase adaptor alpha),1,124,102,active
Strada (STE20-related kinase adaptor alpha),2,52.3,52,inactive
Strada (STE20-related kinase adaptor alpha),3,111,87.5,inactive
"Tbc1d23 (TBC1 domain family, member 23)",1,80.9,111,inactive
"Tbc1d23 (TBC1 domain family, member 23)",2,98.9,98,inactive
Or52p1 (olfactory receptor family 52 subfamily P member 1),1,45.9,42.4,inactive
Or52p1 (olfactory receptor family 52 subfamily P member 1),2,95,85.4,inactive
Or52p1 (olfactory receptor family 52 subfamily P member 1),3,75.4,110,inactive
Nudt11 (nudix hydrolase 11),1,35.5,75.4,inactive
Nudt11 (nudix hydrolase 11),2,80.7,131,inactive
Nudt11 (nudix hydrolase 11),3,57.1,52.3,inactive
Fnip1 (folliculin interacting protein 1),1,69.6,61.2,inactive
Fnip1 (folliculin interacting protein 1),2,129,56.4,active
Fnip1 (folliculin interacting protein 1),3,81.6,96.6,inactive
Snai3 (snail family zinc finger 3),1,103,67,inactive
Snai3 (snail family zinc finger 3),2,61.4,60.2,inactive
Snai3 (snail family zinc finger 3),3,96.6,76.5,inactive
"Rab18 (RAB18, member RAS oncogene family)",1,136,95.8,active
"Rab18 (RAB18, member RAS oncogene family)",2,110,90.6,inactive
"Rab18 (RAB18, member RAS oncogene family)",3,106,123,inactive
Bclaf3 (Bclaf1 and Thrap3 family member 3),1,70.4,77.4,inactive
Bclaf3 (Bclaf1 and Thrap3 family member 3),2,30.6,31.9,inactive
Bclaf3 (Bclaf1 and Thrap3 family member 3),3,65.1,81.9,inactive
1700024G13Rik (RIKEN cDNA 1700024G13 gene),1,53,57.4,inactive
1700024G13Rik (RIKEN cDNA 1700024G13 gene),2,111,61.3,inactive
1700024G13Rik (RIKEN cDNA 1700024G13 gene),3,90.1,114,inactive
Sdcbp (syndecan binding protein),1,63.7,42.6,inactive
Sdcbp (syndecan binding protein),2,57.6,45.7,inactive
Sdcbp (syndecan binding protein),3,47.5,37.8,inactive
Gcnt2 (glucosaminyl (N-acetyl) transferase 2),1,42.6,44,inactive
Gcnt2 (glucosaminyl (N-acetyl) transferase 2),2,74.5,81.8,inactive
Gcnt2 (glucosaminyl (N-acetyl) transferase 2),3,74.2,70.4,inactive
Ceacam20 (CEA cell adhesion molecule 20),1,28.7,15.3,inactive
Ceacam20 (CEA cell adhesion molecule 20),2,120,89.6,inactive
Ceacam20 (CEA cell adhesion molecule 20),3,72.4,74.9,inactive
Aif1l (allograft inflammatory factor 1-like),1,61.2,58.5,inactive
Aif1l (allograft inflammatory factor 1-like),2,48.3,73,inactive
Aif1l (allograft inflammatory factor 1-like),3,32,43.1,inactive
Or13a21 (olfactory receptor family 13 subfamily A member 21),1,106,42.5,inactive
Or13a21 (olfactory receptor family 13 subfamily A member 21),2,69.2,95.8,inactive
Or13a21 (olfactory receptor family 13 subfamily A member 21),3,51,55.7,inactive
"Fthl17e (ferritin, heavy polypeptide-like 17, member E)",1,83.3,62.7,inactive
"Fthl17e (ferritin, heavy polypeptide-like 17, member E)",2,88.7,70.8,inactive
"Fthl17e (ferritin, heavy polypeptide-like 17, member E)",3,36.9,34.8,inactive
Jrk (JRK helix-turn-helix protein),1,70.1,93,inactive
Jrk (JRK helix-turn-helix protein),2,79.1,85.9,inactive
Jrk (JRK helix-turn-helix protein),3,55.6,86,inactive
Or8b47 (olfactory receptor family 8 subfamily B member 47),1,90.1,61.3,inactive
Or8b47 (olfactory receptor family 8 subfamily B member 47),2,49.7,79.1,inactive
Or8b47 (olfactory receptor family 8 subfamily B member 47),3,88.9,90,inactive
Adck1 (aarF domain containing kinase 1),1,55.5,101,inactive
Adck1 (aarF domain containing kinase 1),2,94.8,99.4,inactive
Adck1 (aarF domain containing kinase 1),3,59.2,119,inactive
1700009J07Rik (RIKEN cDNA 1700009J07 gene),1,96.1,63.3,inactive
1700009J07Rik (RIKEN cDNA 1700009J07 gene),2,43.5,54.5,inactive
1700009J07Rik (RIKEN cDNA 1700009J07 gene),3,58,46.1,inactive

14 entries already listed, ordered by “viability (ATP), % of control”, lowest first.
target gene,siRNA no.,"GFP, % of control","viability (ATP), % of control",activity call
"Fthl17e (ferritin, heavy polypeptide-like 17, member E)",3,36.9,34.8,inactive
Or13a21 (olfactory receptor family 13 subfamily A member 21),1,106,42.5,inactive
Aif1l (allograft inflammatory factor 1-like),3,32,43.1,inactive
Or13a21 (olfactory receptor family 13 subfamily A member 21),3,51,55.7,inactive
Aif1l (allograft inflammatory factor 1-like),1,61.2,58.5,inactive
Or8b47 (olfactory receptor family 8 subfamily B member 47),1,90.1,61.3,inactive
"Fthl17e (ferritin, heavy polypeptide-like 17, member E)",1,83.3,62.7,inactive
"Fthl17e (ferritin, heavy polypeptide-like 17, member E)",2,88.7,70.8,inactive
Aif1l (allograft inflammatory factor 1-like),2,48.3,73,inactive
Or8b47 (olfactory receptor family 8 subfamily B member 47),2,49.7,79.1,inactive
Jrk (JRK helix-turn-helix protein),2,79.1,85.9,inactive
Jrk (JRK helix-turn-helix protein),3,55.6,86,inactive
Jrk (JRK helix-turn-helix protein),1,70.1,93,inactive
Or13a21 (olfactory receptor family 13 subfamily A member 21),2,69.2,95.8,inactive
